This experiment concerns the target T1, PIL15-BD (rice (Oryza sativa)) (UniProt Q0JNI9).
T1 sequence: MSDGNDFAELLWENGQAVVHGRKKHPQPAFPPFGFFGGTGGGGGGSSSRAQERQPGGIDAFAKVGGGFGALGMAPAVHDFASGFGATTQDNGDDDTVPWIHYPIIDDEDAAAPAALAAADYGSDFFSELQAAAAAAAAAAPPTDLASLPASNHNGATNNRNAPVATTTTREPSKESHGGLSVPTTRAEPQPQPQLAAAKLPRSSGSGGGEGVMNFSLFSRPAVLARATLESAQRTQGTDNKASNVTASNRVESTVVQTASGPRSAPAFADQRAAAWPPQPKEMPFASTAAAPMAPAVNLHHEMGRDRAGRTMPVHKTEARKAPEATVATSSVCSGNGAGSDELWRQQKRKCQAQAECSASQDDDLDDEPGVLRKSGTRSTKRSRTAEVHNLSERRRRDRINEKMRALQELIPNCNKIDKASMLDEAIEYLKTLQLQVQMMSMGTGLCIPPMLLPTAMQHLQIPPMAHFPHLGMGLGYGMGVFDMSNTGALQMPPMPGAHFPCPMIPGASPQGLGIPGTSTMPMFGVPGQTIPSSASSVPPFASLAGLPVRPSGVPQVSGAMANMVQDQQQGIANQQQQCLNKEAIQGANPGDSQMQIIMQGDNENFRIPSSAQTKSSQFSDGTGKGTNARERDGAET
Nature of the experiment: two-hybrid; pairwise, pGAD424 (AD) and pGBT9 (BD) fusions in yeast strain PJ694A; growth on SD/-Leu-His-Trp.

These are yes or no findings as the source states them, for the method shown. Tags and fused reporters may be left off the sequences shown.

B1: DEP1-AD (protein, UniProt Q67UU9 1-426)
chain: MGEEAVVMEAPRPKSPPRYPDLCGRRRMQLEVQILSREITFLKDELHFLEGAQPVSRSGCIKEINEFVGTKHDPLIPTKRRRHRSCRLFRWIGSKLCICISCLCYCCKCSPKCKRPRCLNCSCSSCCDEPCCKPNCSACCAGSCCSPDCCSCCKPNCSCCKTPSCCKPNCSCSCPSCSSCCDTSCCKPSCTCFNIFSCFKSLYSCFKIPSCFKSQCNCSSPNCCTCTLPSCSCKGCACPSCGCNGCGCPSCGCNGCGCPSCGCNGCGLPSCGCNGCGSCSCAQCKPDCGSCSTNCCSCKPSCNGCCGEQCCRCADCFSCSCPRCSSCFNIFKCSCAGCCSSLCKCPCTTQCFSCQSSCCKRQPSCCKCQSSCCEGQPSCCEGHCCSLPKPSCPECSCGCVWSCKNCTEGCRCPRCRNPCCLSGCLC
Take B1: the binding result was “no binding”.

These data come from publication PMC12392934, “TCP19 regulates nitrogen‐dependent sheath blight susceptibility by modulating nitrogen uptake and signalling in rice”.
